# Reference: PubChem BioAssay AID1259416 (Broad Institute, 2018)
# The entries are a selection whose mix differs from that of the whole data set. The source made the active and inactive calls. Cut-off read from the data, not from the text of the source: active = activity change below about -70% (passing the limit was not always enough); inconclusive = no clear call, values can overlap the other calls.
# Test: inhibitors of Toxoplasma growth in IFN-γ-primed hosts – cell-based, primary screen (AID 1259416);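 note: host cells are HeLa cells infected with Toxoplasma gondii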
# Settings: Toxoplasma gondii growth in IFN-gamma-treated host cells; hits give low values; concentration not given here
row,SMILES,"activity change, negative = inhibition"
1,O=C1NC(=O)c2c1c(-c1ccccc1)cc1[nH]c3ccc(O)cc3c21,active: -82.9%
